{
  "source": "patent US20070110804A1",
  "about": "“Drug polymer complexes” (ROYER BIOMEDICAL, INC., priority 2003, published 2007)",
  "excerpt": "A “yes” entry means that a complex of low solubility forms on mixing the sodium salt of the polymers and the salt of the active ingredient.",
  "data": [
    {"compound": "CCC[C@@H]1C[C@@H](C(=O)N[C@@H]([C@H]2O[C@H](SC)[C@H](O)[C@@H](O)[C@H]2O)[C@H](C)Cl)N(C)C1", "note": "[Clindamycin]", "values": [
      {"measurement": "complex of low solubility forms (yes/no), polymer CMC-L", "value": "no"},
      {"measurement": "complex of low solubility forms (yes/no), polymer CMC-M", "value": "no"},
      {"measurement": "complex of low solubility forms (yes/no), polymer Dextran Sulfate-500", "value": "yes"}
    ]}
  ]
}
